# Data as given in PubChem BioAssay AID1224830 (NIAID, 2016)
# Screen: 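Genes whose knock-down alters the TNF-alpha reporter response to LPS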 (primary screen)
# Cell system: human THP-1 monocytic leukaemia cells, TNF dual-luciferase reporter clone, PMA-differentiated to macrophage-like cells
# Reagent: siRNA pool against human genes, 50 nM
# Duration: LPS for 4 h, given about 3 days after siRNA transfection
# Challenge: bacterial LPS (TLR4 ligand), 10 ng/ml
# Measurement: 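Ratio of firefly to renilla light, scaled to the plate median and expressed as a robust z-score per replicate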
# Reading the numbers: TNF reporter robust z-score: higher = stronger TNF reporter response to LPS
# Call rule: 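Each well counts as active if its z-score is over 2.8 or under -1.5; controls are left without a call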
# Here is a random part of about 18,000 deposited reagents. Over the whole deposit, about 2,900 (16%) got an active call. 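Calls are made per well; low scores hint the gene aids the LPS response, high scores that it dampens it.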 Repeated entries: four replicate wells of each siRNA pool.
gene,TNF reporter robust z-score,outcome
OR2M4,-0.94,inactive
OR2M4,-0.42,inactive
OR2M4,-0.85,inactive
OR2M4,-1.15,inactive
IFI6,1.05,inactive
IFI6,2.42,inactive
IFI6,0.92,inactive
IFI6,1.12,inactive
KIF1C,0.81,inactive
KIF1C,-0.28,inactive
KIF1C,0.61,inactive
KIF1C,1.39,inactive
TM7SF3,2.32,inactive
TM7SF3,-0.06,inactive
TM7SF3,-0.38,inactive
TM7SF3,-0.13,inactive
OR8D4,-1.01,inactive
OR8D4,-0.34,inactive
OR8D4,-1.38,inactive
OR8D4,-0.96,inactive
PAIP2,-0.28,inactive
PAIP2,-1.14,inactive
PAIP2,0.31,inactive
PAIP2,0.62,inactive
HSF2BP,0.25,inactive
HSF2BP,0.91,inactive
HSF2BP,-0.59,inactive
HSF2BP,0.76,inactive
CTAG1B,0.19,inactive
CTAG1B,1.36,inactive
CTAG1B,1.27,inactive
CTAG1B,-0.8,inactive
NOXO1,0.29,inactive
NOXO1,0.13,inactive
NOXO1,-0.12,inactive
NOXO1,0.23,inactive
DNAJC2,-0.55,inactive
DNAJC2,-0.27,inactive
DNAJC2,-0.54,inactive
DNAJC2,0.92,inactive
RFXAP,-1.21,inactive
RFXAP,-0.34,inactive
RFXAP,-0.53,inactive
RFXAP,-0.88,inactive
PTK7,0.2,inactive
PTK7,0.24,inactive
PTK7,0.02,inactive
PTK7,1.07,inactive

No new results follow: 4 of the entries above.
gene,TNF reporter robust z-score,outcome
CTAG1B,1.27,inactive
CTAG1B,-0.8,inactive
NOXO1,0.29,inactive
NOXO1,0.13,inactive
